This is one part of the list.
Legend:
Assay in all cases: glycan array binding signal (z-score within array); higher = stronger binding
Settings in all cases: glycan notation: IUPAC condensed, linker removed
[1] = molecular target: Gal(b1-4)GlcNAc(b1-2)Man(a1-6)[Man(a1-3)]Man(b1-4)GlcNAc(b1-4)GlcNAc
How it was run: (§1)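 The binding signal is a Z-score computed within each array and averaged over linkers. Arrays of the same protein sequence at different concentrations or buffers were also averaged together. Data originate from 3228 arrays in the Consortium for Functional Glycomics database, kept only where the protein sequence was available.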

[2] = molecular target: Gal(b1-4)GlcNAc(b1-2)[Gal(b1-4)GlcNAc(b1-4)]Man(a1-3)[Gal(b1-4)GlcNAc(b1-2)Man(a1-6)]Man(b1-4)GlcNAc(b1-4)GlcNAc
How it was run: as §1

[3] = molecular target: Gal(b1-4)GlcNAc(b1-2)[Gal(b1-4)GlcNAc(b1-4)]Man(a1-3)[Gal(b1-4)GlcNAc(b1-2)[Gal(b1-4)GlcNAc(b1-6)]Man(a1-6)]Man(b1-4)GlcNAc(b1-4)GlcNAc
How it was run: as §1

[4] = molecular target: Gal(b1-4)GlcNAc(b1-2)[Gal(b1-4)GlcNAc(b1-4)]Man(a1-3)[GlcNAc(b1-4)][Gal(b1-4)GlcNAc(b1-2)Man(a1-6)]Man(b1-4)GlcNAc(b1-4)GlcNAc
How it was run: as §1

[5] = molecular target: Gal(b1-4)GlcNAc(b1-2)[Gal(b1-4)GlcNAc(b1-4)]Man(a1-3)[GlcNAc(b1-4)][Gal(b1-4)GlcNAc(b1-2)[Gal(b1-4)GlcNAc(b1-6)]Man(a1-6)]Man(b1-4)GlcNAc(b1-4)GlcNAc
How it was run: as §1

[6] = molecular target: Gal(b1-4)GlcNAc(b1-2)[Gal(b1-4)GlcNAc(b1-6)]Man(a1-6)[Gal(b1-4)GlcNAc(b1-2)Man(a1-3)]Man(b1-4)GlcNAc(b1-4)GlcNAc
How it was run: as §1

[7] = molecular target: Gal(b1-4)GlcNAc(b1-2)[Gal(b1-4)GlcNAc(b1-6)]Man(a1-6)[Gal(b1-4)GlcNAc(b1-2)Man(a1-3)]Man(b1-4)GlcNAc(b1-4)[Fuc(a1-6)]GlcNAc
How it was run: as §1

[8] = molecular target: Gal(b1-4)GlcNAc(b1-2)[Gal(b1-4)GlcNAc(b1-6)]Man(a1-6)[GlcNAc(b1-4)][Gal(b1-4)GlcNAc(b1-2)Man(a1-3)]Man(b1-4)GlcNAc(b1-4)GlcNAc
How it was run: as §1

[9] = molecular target: Gal(b1-4)GlcNAc(b1-2)[Gal(b1-4)GlcNAc(b1-6)]Man(a1-6)[GlcNAc(b1-4)][Gal(b1-4)GlcNAc(b1-2)[Gal(b1-4)GlcNAc(b1-4)]Man(a1-3)]Man(b1-4)GlcNAc(b1-4)[Fuc(a1-6)]GlcNAc
How it was run: as §1

[10] = molecular target: Gal(b1-4)GlcNAc(b1-3)Gal(b1-3)GalNAc
How it was run: as §1

[11] = molecular target: Gal(b1-4)GlcNAc(b1-3)Gal(b1-3)GlcNAc
How it was run: as §1

[12] = molecular target: Gal(b1-4)GlcNAc(b1-3)Gal(b1-4)Glc
How it was run: as §1

[13] = molecular target: Gal(b1-4)GlcNAc(b1-3)Gal(b1-4)GlcNAc
How it was run: as §1

[14] = molecular target: Gal(b1-4)GlcNAc(b1-3)Gal(b1-4)GlcNAc(b1-2)Man(a1-3)[Gal(b1-4)GlcNAc(b1-3)Gal(b1-4)GlcNAc(b1-2)Man(a1-6)]Man(b1-4)GlcNAc(b1-4)GlcNAc
How it was run: as §1

[15] = molecular target: Gal(b1-4)GlcNAc(b1-3)Gal(b1-4)GlcNAc(b1-2)Man(a1-3)[Gal(b1-4)GlcNAc(b1-3)Gal(b1-4)GlcNAc(b1-2)Man(a1-6)]Man(b1-4)GlcNAc(b1-4)[Fuc(a1-6)]GlcNAc
How it was run: as §1

[16] = molecular target: Gal(b1-4)GlcNAc(b1-3)Gal(b1-4)GlcNAc(b1-2)[Gal(b1-4)GlcNAc(b1-3)Gal(b1-4)GlcNAc(b1-6)]Man(a1-6)[Gal(b1-4)GlcNAc(b1-3)Gal(b1-4)GlcNAc(b1-2)Man(a1-3)]Man(b1-4)GlcNAc(b1-4)GlcNAc
How it was run: as §1

[17] = molecular target: Gal(b1-4)GlcNAc(b1-3)Gal(b1-4)GlcNAc(b1-2)[Gal(b1-4)GlcNAc(b1-3)Gal(b1-4)GlcNAc(b1-6)]Man(a1-6)[Gal(b1-4)GlcNAc(b1-3)Gal(b1-4)GlcNAc(b1-2)Man(a1-3)]Man(b1-4)GlcNAc(b1-4)[Fuc(a1-6)]GlcNAc
How it was run: as §1

[18] = molecular target: Gal(b1-4)GlcNAc(b1-3)Gal(b1-4)GlcNAc(b1-3)Gal(b1-4)GlcNAc
How it was run: as §1

[19] = molecular target: Gal(b1-4)GlcNAc(b1-3)Gal(b1-4)GlcNAc(b1-3)Gal(b1-4)GlcNAc(b1-2)Man(a1-3)[Gal(b1-4)GlcNAc(b1-3)Gal(b1-4)GlcNAc(b1-3)Gal(b1-4)GlcNAc(b1-2)Man(a1-6)]Man(b1-4)GlcNAc(b1-4)GlcNAc
How it was run: as §1

[20] = molecular target: Gal(b1-4)GlcNAc(b1-3)Gal(b1-4)GlcNAc(b1-3)Gal(b1-4)GlcNAc(b1-2)Man(a1-3)[Gal(b1-4)GlcNAc(b1-3)Gal(b1-4)GlcNAc(b1-3)Gal(b1-4)GlcNAc(b1-2)Man(a1-6)]Man(b1-4)GlcNAc(b1-4)[Fuc(a1-6)]GlcNAc
How it was run: as §1

[21] = molecular target: Gal(b1-4)GlcNAc(b1-3)Gal(b1-4)GlcNAc(b1-3)Gal(b1-4)GlcNAc(b1-2)[Gal(b1-4)GlcNAc(b1-3)Gal(b1-4)GlcNAc(b1-3)Gal(b1-4)GlcNAc(b1-6)]Man(a1-6)[Gal(b1-4)GlcNAc(b1-3)Gal(b1-4)GlcNAc(b1-3)Gal(b1-4)GlcNAc(b1-2)Man(a1-3)]Man(b1-4)GlcNAc(b1-4)[Fuc(a1-6)]GlcNAc
How it was run: as §1

[22] = molecular target: Gal(b1-4)GlcNAc(b1-3)Gal(b1-4)GlcNAc(b1-3)Gal(b1-4)GlcNAc(b1-3)Gal(b1-4)GlcNAc(b1-2)Man(a1-3)[Gal(b1-4)GlcNAc(b1-3)Gal(b1-4)GlcNAc(b1-3)Gal(b1-4)GlcNAc(b1-3)Gal(b1-4)GlcNAc(b1-2)Man(a1-6)]Man(b1-4)GlcNAc(b1-4)GlcNAc
How it was run: as §1

B1: Mincle (Bos taurus) (protein)
chain: MNSSTSPASQTERRCFSFQLFSWAIAGTSILLLSACFITRCVVTYSIFQLCDEKKFQPPGDSMELSCYNDGSGSVKNCCPLKWFHFQSSCYLFSPDTMSWRASLKNCSSMGAHLVVINTQEEQEFLYYTKPRKKEFYIGLTDQVTEGQWQWVDGTPFTKSLSFWDAGEPNNLVIVEDCATIRDSSNPRQNWNDVPCFFNMFRVCEMPERKI
[1]
  glycan array binding signal (z-score): 0.848
[2]
  glycan array binding signal (z-score): 0.607
[3]
  glycan array binding signal (z-score): -0.127
[4]
  glycan array binding signal (z-score): -0.73
[5]
  glycan array binding signal (z-score): -0.256
[6]
  glycan array binding signal (z-score): -0.55
[7]
  glycan array binding signal (z-score): 0.126
[8]
  glycan array binding signal (z-score): 0.236
[9]
  glycan array binding signal (z-score): 0.41
[10]
  glycan array binding signal (z-score): -0.407
[11]
  glycan array binding signal (z-score): -0.097
[12]
  glycan array binding signal (z-score): -0.083
[13]
  glycan array binding signal (z-score): -0.628
[14]
  glycan array binding signal (z-score): 1.83
[15]
  glycan array binding signal (z-score): 1.11
[16]
  glycan array binding signal (z-score): 1.25
[17]
  glycan array binding signal (z-score): 1.12
[18]
  glycan array binding signal (z-score): -0.424
[19]
  glycan array binding signal (z-score): 1.65
[20]
  glycan array binding signal (z-score): 0.543
[21]
  glycan array binding signal (z-score): 0.941
[22]
  glycan array binding signal (z-score): 0.361

Reference: the supplement of paper PMC8728848
